Percent effect of library compounds

The values are deposited in ChEMBL (CHEMBL3988442, “University of Dundee, Small-Polar-MMV Screening Library” (2021)).

Each number is a percent effect as filed. The record does not define 0% and 100%; most values in the screen are far below 50% and negative numbers occur (in some assays of this library far below -100). This is an unselected part of the compounds tested. Two or more numbers in one place are separate tests of the same structure; such repeats can differ widely.

Mtb glucose medium: 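Phenotypic screen: M. tuberculosis growth, glucose 7H9 medium, 3 days; the read-out is not stated. Concentration: 50 µM. The record gives no direction; compounds that gave an IC50 in retests scored well above the rest, so higher reads as more growth inhibition. Size under these conditions: about 69,000 compounds, about 760 of them at 50% or above in at least one test.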
Mtb cholesterol medium: 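Whole-cell growth test on Mycobacterium tuberculosis, read after 4 days in a medium based on cholesterol and the lipid DPPC; the read-out is not stated. Tested at 50 µM. Higher reads as more growth inhibition (inferred: compounds with an IC50 in retests scored well above the rest). About 69,000 compounds were tested under these conditions; 0.54% (about 370) showed 50% or more at least once.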

| # | Compound | Mtb glucose medium | Mtb cholesterol medium |
|---|---|---|---|
| 1 | `CC(=O)N1CCC(C(=O)Nc2nc(C3CC3)cs2)CC1` | -42.59 | -0.2294 and 4.207 |
| 2 | `CCn1cnnc1CNC(=O)CCC(=O)c1ccc2c(c1)OCCO2` | 10.83 | 7.935 |
| 3 | `Cc1ccc(Cl)c(NC(=O)NC2(C)CCOC2)c1` (centres undefined) | 88.52 | 19.25 |
| 4 | `Cc1nc(C2CCN(S(=O)(=O)c3ccc4c(c3)CCO4)CC2)n[nH]1` | 9.083 | 16.28 |
| 5 | `NC(=O)CC1CCN(C(=O)NCc2ccc(-c3ccn[nH]3)cc2)CC1` | 2.303 | 13.4 |
| 6 | `Cc1cc(NCCc2nc(C)cs2)nc(-c2cccnc2)n1` | -1.395 | 14.38 |
| 7 | `Cc1nn(C)c2c(=O)n(CC(=O)NCC3CCCO3)ccc12` (centres undefined) | -0.3087 | 1.451 |
| 8 | `Cc1cnn(CCNCc2csc(-c3ccc(C(N)=O)cc3)n2)c1` | 34.73 | -3.494 |
| 9 | `Cc1nnc(C(C)Nc2cccc(COCC(F)(F)C(F)F)c2)o1` (centres undefined) | -14.96 and 8.309 | -20.93 |
| 10 | `Cc1nn(C)cc1CN1CCC(C2Nc3ccccc3S(=O)(=O)N2)CC1` (centres undefined) | 9.17 | -6.735 |
| 11 | `CC(=O)NCCNC(=O)NCc1ccc(Br)cc1Cl` | 12.39 | -16.58 |
| 12 | `CC(=O)N1CCC(N2CCOC(CC3CCCCC3)C2)CC1` (centres undefined) | 15.67 | 6.184 |
| 13 | `O=C(Cc1ccccc1Cl)NCC1CCN(Cc2ccsc2)CC1` | 15.12 | 12.44 |
| 14 | `CC(C)C(O)C(=O)N1CCC2(CC1)c1nc[nH]c1CCN2S(C)(=O)=O` (centres undefined) | -21.33 | -21.03 and 3.829 |
| 15 | `N#Cc1ccc(OCCN2CCn3c(nnc3C3CC3)C2)cc1` | -31.65 | -19.99 |
| 16 | `Cn1ccc(C(=O)NC2CCN(c3ncccn3)CC2)cc1=O` | -1.569 | -11.15 |
| 17 | `CN(Cc1ccco1)C1CCC12CCN(C(=O)c1ccco1)CC2.O=C(O)C(F)(F)F` (centres undefined) | -48.27 | 3.867 |
| 18 | `Cc1nc2ccccn2c1CC(=O)N[C@@H]1CCC[C@@H](N2CCCC2)[C@@H]1O` | 0.6957 | -0.4583 |
| 19 | `COc1ccc(C2=NOC(CO)C2)cc1` (centres undefined) | 26.46 | 13.83 |
| 20 | `CCn1c(CN(C)C)nnc1C1CCN(Cc2ccc(Cl)cc2F)CC1` | -34.65 | 2.626 and -20.52 |
| 21 | `CC(=O)N1CCn2c(COCc3csc(C)n3)cnc2C1C` (centres undefined) | 36.49 | 25.49 |
| 22 | `CC/N=c1\nc(NCC)nc2n1C(O)(Nc1cccc(C)c1C)CS2` (centres undefined) | 1.794 | -17.29 |
| 23 | `O=C1CCN(C(=O)c2csc(-c3ccc(C(F)(F)F)cc3)n2)CCN1` | -13.01 | -5.741 |
| 24 | `O=C(Nc1ccncc1)C1=NN(c2ccccc2)C(=O)CN1` | -15.88 | -16.13 |
| 25 | `O=C(O)C(F)(F)F.[H][C@@]12COC[C@@H](C(=O)Nc3cnccn3)[C@]1([H])CN(C1CCCC1)C2` | 6.698 | -12.28 and -1.61 |
| 26 | `CCCc1nnc(NCCCn2nc(C)c(Cl)c2C)o1` | 31.3 | 28.07 |
| 27 | `CCOc1ccc(CCCC(=O)N2CC[C@H](NC(C)=O)C2)cc1C` | 13.31 | 12.91 |
| 28 | `Cc1cc(C)n(-c2cncc(NCCNC(=O)C(C)C)n2)n1` | 16.35 | 1.909 |
| 29 | `CC(C)=CCC1(CO)CCCN(Cc2nccs2)C1` (centres undefined) | 24.51 | -2.926 |
| 30 | `N#Cc1ccc(-c2nnc(CSCCN3CCOCC3)o2)cc1` | 3.656 and -15.38 | -4.167 |
| 31 | `O=C(CS(=O)(=O)Cc1ccc(F)cc1)NCc1ccccc1F` | 5.891 | 20.09 |
| 32 | `CN1CCC(CCc2ccnc(Nc3cnccn3)c2)CC1` | 13.26 | 26.76 |
| 33 | `Cc1noc(C)c1CN(C)C(=O)C1CCCN1S(N)(=O)=O` (centres undefined) | 7.02 and -45.24 | -23.97 |
| 34 | `O=C(NCCCNC(=O)c1cccc(O)c1)Nc1ccc(Cl)cc1` | 20.3 | -2.575 |
| 35 | `Cn1nc(C2CCN(C(=O)c3cccs3)CC2)c2cccnc21` | 14.35 | 2.761 |
| 36 | `CC(=O)N1CCC(C(=O)NCCc2c[nH]c3cc(C)ccc23)CC1` | -34.24 | -15.59 |
| 37 | `CC(=O)N1CCC(C)(c2cc(C(=O)NCC(C)(C)C)nc(C)n2)CC1` | 4.547 | -23.79 and 2.656 |
| 38 | `CS(=O)(=O)NCc1cccc(COC2CCCCC2)c1` | -2.895 | -5.394 |
| 39 | `COc1ccc(OCCNC(=O)c2ccc3c(=O)[nH][nH]c(=O)c3c2)cc1` | -18.95 | -5.785 |
| 40 | `[H][C@@]12COC[C@H](c3nc(C)no3)[C@]1([H])CN(C(=O)Cc1ccsc1)C2` | 4.452 | -10.6 |
| 41 | `Cc1nc(C2(NCC(=O)NCc3cccs3)CCCCC2)no1` | 25.12 | 12.54 |
| 42 | `Cc1csc(C2(NCc3nc(-c4ccco4)no3)CCCC2)n1` | 15.04 | 5.042 |
| 43 | `Cc1noc(C)c1NC(=O)CCn1cc(Br)ccc1=O` | -27.24 and 7.046 | -12.68 |
| 44 | `Cc1ccc2c(n1)N(CCn1cccn1)CCN(S(C)(=O)=O)C2.O=C(O)C(F)(F)F` | -43.67 | -18.88 |
| 45 | `CCC(=O)NC1CCCN(Cn2nc(C(C)(C)C)ccc2=O)C1` (centres undefined) | -9.28 | -13.54 |
| 46 | `O=C(CO)N1CC2(CCN(c3ccccc3)C2)C1` | -37.86 and -4.592 | 4.449 |
| 47 | `CCN(CCNC(=O)c1cccc(C)c1C)C1CC1` | -33.27 | 3.129 |
| 48 | `CCc1nc(C2CCCN2CC(=O)Nc2c(C)n[nH]c2C)no1` (centres undefined) | 18.9 | 5.887 |
| 49 | `CN(C)C(=O)N1CCC(C(=O)NCCNc2ncccc2C#N)CC1` | 14.4 and -3.764 | 5.789 |
| 50 | `CCOCCOC(C)C(=O)Nc1ccc2ccn(CC(=O)NC)c2c1` (centres undefined) | -2.484 and -18.79 | -41.93 |
| 51 | `CN(C)CC(=O)Nc1ccc(C(=O)N(C)CCc2cn[nH]c2)cc1` | 9.78 | -19.9 |
| 52 | `O=C(CN1CCOC(Cn2cccn2)C1)NC(C1CC1)C1CC1` (centres undefined) | 22.21 | 7.774 |
| 53 | `CCOC(=O)N1CCc2ccccc2C12CCNCC2.Cl` | 12 | 4.629 |
| 54 | `c1cc(N2CCCCC2)ccc1-c1noc(CN2CCOCC2)n1` | 26.41 | 10.72 |
| 55 | `Cc1noc(C)c1CNS(=O)(=O)N(C)Cc1ccccc1Br` | 20.4 | 0.3254 |
| 56 | `CN(C)C(=O)N1CCC2(CC(=O)N(c3cccc(C#N)c3)C2)C1` (centres undefined) | -27.05 | -23.19 |
| 57 | `CN(CC(=O)N1CCc2[nH]c3ccc(F)cc3c2C1)CC1OCCO1` | 3.736 | 4.128 |
| 58 | `Cc1cc2c(=O)n3c(nc2s1)CCN(C(=O)c1cnn(C)c1)CC3` | 19.83 | -11.39 |
| 59 | `COc1ccc(OC)c(CN2CCc3nc4ccsc4c(=O)n3CC2)c1.Cl` | 28.43 | 6.048 |
| 60 | `[H][C@@]12CN(S(C)(=O)=O)C[C@]1(C(=O)NCC1CC1)CCCN2c1ncccn1` | -9.282 | -12.35 |
| 61 | `CCc1nccn1C1CCCN(C(=O)c2ccc3[nH]nnc3c2)C1` (centres undefined) | 10.14 | 14.38 |
| 62 | `CC(Nc1cccc2c1OCCO2)C(=O)Nc1ccc(S(N)(=O)=O)cc1` (centres undefined) | -11.91 | -20.32 |
| 63 | `Cc1cnn(CCNCc2csc(-c3ccc4c(c3)OCO4)n2)c1` | 7.817 | 17.82 |
| 64 | `COC(=O)CCSc1nncn1-c1ccc(OC)nc1` | 11.17 | -1.511 and -4.545 |
| 65 | `Cc1cccc(Nc2cccc(C3CCCN(Cc4ncc[nH]4)C3)n2)n1` (centres undefined) | 15.37 | 11.43 |
| 66 | `Cc1ccc(C2COCCN2C(=O)c2ccsc2)o1` (centres undefined) | -5.765 | -9.487 and -14.82 |
| 67 | `N#Cc1cn(C2CC2)c(=O)n(CC(O)c2ccc(Cl)cc2)c1=O` (centres undefined) | 10.46 | -9.02 |
| 68 | `Cc1cnn(CC2CN(Cc3cccc(C(N)=O)c3)CCO2)c1` (centres undefined) | 26.13 | -9.321 |
| 69 | `Cc1cccc(NC2CCc3c2[nH]c(=O)n(C2CCCCC2)c3=O)c1C` (centres undefined) | 5.941 | -16.62 |
| 70 | `COC(=O)c1ccc(-c2noc(CN(CCO)Cc3cccs3)n2)cc1` | 75.78 | 35.99 |
| 71 | `CC1CC(=O)c2cc(C(=O)N3CCN(C)CC3)c(=O)[nH]c2C1` (centres undefined) | 20.65 | 14.75 |
| 72 | `CNC(=O)COc1ccccc1CNCc1c(C)noc1C` | -13.64 | -8.559 |
| 73 | `O=C(c1ccncc1)N1CCn2c(nnc2-c2ccccc2)C1` | -0.2214 | 3.676 |
| 74 | `Cn1nc(CO)c2c1CCN(c1ncnc3c1CCNC3)C2` | -41.78 | -44.73 |
| 75 | `Cc1c(C(=O)NCCC(=O)N2CCCC2)oc2c(F)cccc12` | 24.82 | 8.194 |

Once more, the final 5:

Compound,Mtb glucose medium,Mtb cholesterol medium
CC1CC(=O)c2cc(C(=O)N3CCN(C)CC3)c(=O)[nH]c2C1 (centres undefined),20.65,14.75
CNC(=O)COc1ccccc1CNCc1c(C)noc1C,-13.64,-8.559
O=C(c1ccncc1)N1CCn2c(nnc2-c2ccccc2)C1,-0.2214,3.676
Cn1nc(CO)c2c1CCN(c1ncnc3c1CCNC3)C2,-41.78,-44.73
Cc1c(C(=O)NCCC(=O)N2CCCC2)oc2c(F)cccc12,24.82,8.194